PubChem BioAssay AID652259 – Drosophila RNAi Screening Center | 2013
Screen: 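Knock-downs that push a Wingless-driven reporter up or down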 (primary screen). System: Drosophila clone 8 imaginal disc epithelial cells. Reagents: long dsRNA against Drosophila genes. Challenge: pathway stimulated by co-transfected Wingless expression plasmid. Detection: 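Dual luciferase reads per well after Wingless plasmid stimulation: reporter firefly light and Renilla control light; activity is firefly divided by Renilla, a ratio not deposited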. Scale: firefly reporter light: higher = more Wg reporter light, before normalisation; Renilla control light: higher = more transfected or surviving cells. Hit rule: 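Strong candidates differ from their plate mean by at least two out of four per-plate statistical tests; weak candidates meet just one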. Calls: active = candidate regulator (raises or lowers reporter); inactive = not a candidate.
The deposit covers about 22,000 reagents; shown is a random part of those with a known target gene and a result. Of all reagents, 233 (1.1%) got an active call. 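Light values are raw, unnormalised plate reads; the ratio scores behind the reporter calls were not deposited.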 Reagents against one gene are numbered here. Names joined by + are all predicted targets of the reagent. Not given: the amount of reagent, the time to read-out, the dose of the treatment.

noc
- firefly reporter light, replicate 1: 6849
- Renilla control light, replicate 1: 916
- call: inactive

Ac78C #1
- firefly reporter light, replicate 1: 3444
- Renilla control light, replicate 1: 1482
- call: inactive

Ac78C #2
- firefly reporter light, replicate 1: 13300
- Renilla control light, replicate 1: 4167
- call: inactive

Ac78C #3
- firefly reporter light, replicate 1: 14496
- Renilla control light, replicate 1: 5201
- call: inactive

CG10510
- firefly reporter light, replicate 1: 6600
- Renilla control light, replicate 1: 2090
- call: inactive

morgue
- firefly reporter light, replicate 1: 15515
- Renilla control light, replicate 1: 4880
- call: inactive

orb2 + CG43783 #1
- firefly reporter light, replicate 1: 5434
- Renilla control light, replicate 1: 2097
- call: inactive

orb2 + CG43783 #2
- firefly reporter light, replicate 1: 1432
- firefly reporter light, replicate 2: 6292
- Renilla control light, replicate 1: 1072
- Renilla control light, replicate 2: 2480
- call: inactive

orb2 + CG43783 #3
- firefly reporter light, replicate 1: 5352
- Renilla control light, replicate 1: 2339
- call: inactive

Gem4b + Gem4c + Glos
- firefly reporter light, replicate 1: 17057
- Renilla control light, replicate 1: 7216
- call: inactive

Cyp6w1
- firefly reporter light, replicate 1: 7381
- Renilla control light, replicate 1: 3217
- call: inactive

The list goes on, starting with the last 2 of the part before.
Gem4b + Gem4c + Glos
- firefly reporter light, replicate 1: 17057
- Renilla control light, replicate 1: 7216
- call: inactive

Cyp6w1
- firefly reporter light, replicate 1: 7381
- Renilla control light, replicate 1: 3217
- call: inactive

CG6048
- firefly reporter light, replicate 1: 15843
- Renilla control light, replicate 1: 7750
- call: inactive

Arpc3A
- firefly reporter light, replicate 1: 16695
- Renilla control light, replicate 1: 3053
- call: inactive

Obp73a
- firefly reporter light, replicate 1: 8316
- Renilla control light, replicate 1: 2963
- call: inactive

Tcs3
- firefly reporter light, replicate 1: 5222
- Renilla control light, replicate 1: 2637
- call: inactive

CG9921
- firefly reporter light, replicate 1: 4149
- Renilla control light, replicate 1: 1362
- call: inactive

CG6231
- firefly reporter light, replicate 1: 15062
- Renilla control light, replicate 1: 2160
- call: inactive
